Measurements reported in PubChem BioAssay AID1224831 (NIAID, 2016).
The deposit covers about 3,500 reagents; shown is an unselected part. 731 of them (21%) count as active. 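Active means either lowered or raised reporter signal; the gene-median score did not drive the per-siRNA calls.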

Test: 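Retesting screen hits on the TLR4-driven TNF response with six separate siRNAs each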 (follow-up of hits)
Cell system: human THP-1 B5 monocytic leukaemia cells carrying a TNF promoter luciferase reporter, made macrophage-like with PMA
Reagent: single siRNA against human genes, 50 nM
Time to read-out: about 68 h of knock-down, then 4 h LPS
Conditions: LPS (Salmonella minnesota, TLR-grade) at 10 ng/ml for 4 h; PMA 5 ng/ml present during knock-down
Measured: 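TNF promoter reporter read as dual luciferase ratio after 4 h LPS, normalised per plate to its median, given as replicate mean robust z-score per siRNA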
Direction: TNF reporter z-score: higher = stronger LPS-induced TNF reporter signal; z-score, median over gene's siRNAs: higher = stronger TNF reporter signal across the gene's siRNAs
Active means: 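Active when the replicate mean z-score is about -1 or lower, or about 1.5 or higher; lowered and raised TNF reporter signal both count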
Meaning of the calls: active = changed TNF reporter (either direction); inactive = little change

no.	gene symbol	PubChem SID	TNF reporter z-score, replicate mean	z-score, median over gene's siRNAs	Outcome
1	ZNF607	SID315487191	0.76	0.365	inactive
2	ZNF607	SID315487192	-0.33	0.365	inactive
3	ZNF607	SID315487193	0.2	0.365	inactive
4	ZNF607	SID315487194	-0.36	0.365	inactive
5	ZNF607	SID315487195	0.83	0.365	inactive
6	ZNF607	SID315487196	0.53	0.365	inactive
7	ERC1	SID315485172	-0.12	-0.075	inactive
8	ERC1	SID315485173	0.45	-0.075	inactive
9	ERC1	SID315485174	-0.03	-0.075	inactive
10	ERC1	SID315485175	-0.14	-0.075	inactive
11	ERC1	SID315485176	2.91	-0.075	active
12	ERC1	SID315485177	-0.15	-0.075	inactive
13	SMARCA1	SID315482880	-0.02	0.005	inactive
14	SMARCA1	SID315482881	0.4	0.005	inactive
15	SMARCA1	SID315482882	1.57	0.005	active
16	SMARCA1	SID315482883	-1.48	0.005	active
17	SMARCA1	SID315482884	-1.71	0.005	active
18	SMARCA1	SID315482885	0.03	0.005	inactive
19	VPREB3	SID315485457	0.45	0.32	inactive
20	VPREB3	SID315485458	-0.54	0.32	inactive
21	VPREB3	SID315485459	-0.8	0.32	inactive
22	VPREB3	SID315485460	0.88	0.32	inactive
23	VPREB3	SID315485461	1.11	0.32	inactive
24	VPREB3	SID315485462	0.19	0.32	inactive
25	APBB1IP	SID315485703	0.55	-0.695	inactive
26	APBB1IP	SID315485704	-0.43	-0.695	inactive
27	APBB1IP	SID315485705	-2.03	-0.695	active
28	APBB1IP	SID315485706	0.53	-0.695	inactive
29	APBB1IP	SID315485707	-0.96	-0.695	inactive
30	APBB1IP	SID315485708	-0.99	-0.695	inactive
31	BUB3	SID315483222	1.67	0.625	active
32	BUB3	SID315483223	-0.84	0.625	inactive
33	BUB3	SID315483224	0.64	0.625	inactive
34	BUB3	SID315483225	-0.7	0.625	inactive
35	BUB3	SID315483226	0.61	0.625	inactive
36	BUB3	SID315483227	0.8	0.625	inactive
37	OR10Q1	SID315488202	-0.83	-0.505	inactive
38	OR10Q1	SID315488203	0.92	-0.505	inactive
39	OR10Q1	SID315488204	-0.18	-0.505	inactive
40	OR10Q1	SID315488205	-1.23	-0.505	active
41	OR10Q1	SID315488206	-0.08	-0.505	inactive
42	OR10Q1	SID315488207	-0.92	-0.505	inactive

4 entries already listed, ordered by “TNF reporter z-score, replicate mean”, high to low:
gene symbol	PubChem SID	TNF reporter z-score, replicate mean	z-score, median over gene's siRNAs	Outcome
OR10Q1	SID315488203	0.92	-0.505	inactive
BUB3	SID315483227	0.8	0.625	inactive
OR10Q1	SID315488204	-0.18	-0.505	inactive
OR10Q1	SID315488202	-0.83	-0.505	inactive

Continued.
no.	gene symbol	PubChem SID	TNF reporter z-score, replicate mean	z-score, median over gene's siRNAs	Outcome
43	ZNF750	SID315486969	-1.97	-0.275	active
44	ZNF750	SID315486970	-0.31	-0.275	inactive
45	ZNF750	SID315486971	-0.96	-0.275	inactive
46	ZNF750	SID315486972	0.52	-0.275	inactive
47	ZNF750	SID315486973	-0.24	-0.275	inactive
48	ZNF750	SID315486974	0.96	-0.275	inactive
49	SPSB3	SID315487269	-0.32	-0.49	inactive
50	SPSB3	SID315487270	-0.7	-0.49	inactive
51	SPSB3	SID315487271	-0.04	-0.49	inactive
52	SPSB3	SID315487272	-1.26	-0.49	active
53	SPSB3	SID315487273	-0.66	-0.49	inactive
54	SPSB3	SID315487274	-0.2	-0.49	inactive
55	HTR3A	SID315482472	1.44	0.53	inactive
56	HTR3A	SID315482473	0.93	0.53	inactive
57	HTR3A	SID315482474	0.13	0.53	inactive
58	HTR3A	SID315482475	0.06	0.53	inactive
59	HTR3A	SID315482476	-1.05	0.53	active
60	HTR3A	SID315482477	1.09	0.53	inactive
61	GLI2	SID315482370	-0.44	0.185	inactive
62	GLI2	SID315482371	0.82	0.185	inactive
63	GLI2	SID315482372	1.1	0.185	inactive
64	GLI2	SID315482373	0.29	0.185	inactive
65	GLI2	SID315482374	0.08	0.185	inactive
66	GLI2	SID315482375	-0.62	0.185	inactive
67	KIT	SID315482520	-0.84	0.19	inactive
68	KIT	SID315482521	0.53	0.19	inactive
69	KIT	SID315482522	0.7	0.19	inactive
70	KIT	SID315482523	-0.67	0.19	inactive
71	KIT	SID315482524	0.84	0.19	inactive
72	KIT	SID315482525	-0.15	0.19	inactive
73	LRRC73	SID315488220	-0.96	-0.805	inactive
74	LRRC73	SID315488221	-2.61	-0.805	active
75	LRRC73	SID315488222	1.61	-0.805	active
76	LRRC73	SID315488223	-0.87	-0.805	inactive
77	LRRC73	SID315488224	-0.74	-0.805	inactive
78	LRRC73	SID315488225	0.92	-0.805	inactive
79	CNTNAP3	SID315487005	0.67	-0.13	inactive
80	CNTNAP3	SID315487006	-0.78	-0.13	inactive
81	CNTNAP3	SID315487007	-1.37	-0.13	active
82	CNTNAP3	SID315487008	3.95	-0.13	active
83	CNTNAP3	SID315487009	0.35	-0.13	inactive
84	CNTNAP3	SID315487010	-0.61	-0.13	inactive
